Results are given in words; binding and its absence hold for the method and conditions named. In cells and extracts the contact can be indirect. Some entries that bind do so weakly or less than the wild type.
What was measured:
[1] = target: IMPORTIN-α4:GFP (Arabidopsis thaliana) (UniProt O80480); experiment: co-IP; GFP-tagged importin-α (or YFP) and RFP-tagged protein co-expressed in N. benthamiana, 72 h; leaf extract in 50 mM Tris, 150 mM NaCl, 10% glycerol, 1 mM EDTA, 5 mM DTT, pH 7.5; precipitated with α-GFP-nanobody:Halo:His6 magnetic beads, 2 h at 4°C; α-RFP western blot
[2] = target: IMPORTIN-α2:GFP (Arabidopsis thaliana) (UniProt F4JL11); experiment: as above

By UniProt entry, the sequences of proteins in these tests, tags left out. Residues count along the entry.
UniProt O80480: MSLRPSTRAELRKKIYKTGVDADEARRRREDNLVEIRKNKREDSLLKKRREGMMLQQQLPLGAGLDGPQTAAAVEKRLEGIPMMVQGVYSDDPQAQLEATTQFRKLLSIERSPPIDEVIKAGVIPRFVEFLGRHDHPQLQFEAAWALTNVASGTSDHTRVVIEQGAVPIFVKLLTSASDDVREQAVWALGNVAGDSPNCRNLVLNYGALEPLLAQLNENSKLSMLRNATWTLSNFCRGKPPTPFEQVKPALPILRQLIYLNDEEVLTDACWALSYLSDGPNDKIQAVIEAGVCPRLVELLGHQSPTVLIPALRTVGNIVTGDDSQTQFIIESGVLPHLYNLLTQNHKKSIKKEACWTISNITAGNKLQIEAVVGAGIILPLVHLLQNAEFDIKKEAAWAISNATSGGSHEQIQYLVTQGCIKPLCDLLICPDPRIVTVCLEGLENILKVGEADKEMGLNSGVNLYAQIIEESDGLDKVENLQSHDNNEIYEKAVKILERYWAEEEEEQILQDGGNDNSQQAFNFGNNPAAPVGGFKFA
UniProt F4JL11: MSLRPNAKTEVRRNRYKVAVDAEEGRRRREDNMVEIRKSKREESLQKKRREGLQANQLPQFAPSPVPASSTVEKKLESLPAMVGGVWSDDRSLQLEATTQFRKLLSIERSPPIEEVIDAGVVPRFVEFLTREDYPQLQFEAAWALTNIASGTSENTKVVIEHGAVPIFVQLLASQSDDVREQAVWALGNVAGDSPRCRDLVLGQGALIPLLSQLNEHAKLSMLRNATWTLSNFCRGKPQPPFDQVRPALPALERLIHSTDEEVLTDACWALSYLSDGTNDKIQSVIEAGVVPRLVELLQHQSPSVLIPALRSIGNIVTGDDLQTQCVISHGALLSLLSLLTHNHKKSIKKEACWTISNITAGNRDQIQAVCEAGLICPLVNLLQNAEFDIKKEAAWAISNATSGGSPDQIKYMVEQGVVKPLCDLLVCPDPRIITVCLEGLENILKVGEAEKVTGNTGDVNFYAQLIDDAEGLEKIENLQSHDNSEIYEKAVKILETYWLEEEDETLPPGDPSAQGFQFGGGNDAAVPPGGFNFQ
UniProt Q11207: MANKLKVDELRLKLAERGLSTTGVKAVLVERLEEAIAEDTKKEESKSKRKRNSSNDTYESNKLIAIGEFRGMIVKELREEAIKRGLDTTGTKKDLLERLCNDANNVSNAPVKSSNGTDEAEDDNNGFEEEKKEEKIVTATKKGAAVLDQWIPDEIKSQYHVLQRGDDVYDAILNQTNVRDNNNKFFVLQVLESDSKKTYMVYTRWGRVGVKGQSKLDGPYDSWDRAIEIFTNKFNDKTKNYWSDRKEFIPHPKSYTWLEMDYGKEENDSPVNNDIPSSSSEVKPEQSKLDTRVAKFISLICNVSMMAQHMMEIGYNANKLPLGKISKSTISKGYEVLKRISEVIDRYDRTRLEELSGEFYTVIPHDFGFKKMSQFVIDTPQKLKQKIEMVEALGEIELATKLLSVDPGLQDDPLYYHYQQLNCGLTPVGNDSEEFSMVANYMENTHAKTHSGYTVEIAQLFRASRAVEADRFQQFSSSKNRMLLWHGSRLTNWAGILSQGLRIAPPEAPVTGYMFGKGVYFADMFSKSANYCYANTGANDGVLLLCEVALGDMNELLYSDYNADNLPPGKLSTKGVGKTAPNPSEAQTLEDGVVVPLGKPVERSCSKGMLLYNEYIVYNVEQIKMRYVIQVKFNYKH
UniProt M4C4U1, residues 25-285: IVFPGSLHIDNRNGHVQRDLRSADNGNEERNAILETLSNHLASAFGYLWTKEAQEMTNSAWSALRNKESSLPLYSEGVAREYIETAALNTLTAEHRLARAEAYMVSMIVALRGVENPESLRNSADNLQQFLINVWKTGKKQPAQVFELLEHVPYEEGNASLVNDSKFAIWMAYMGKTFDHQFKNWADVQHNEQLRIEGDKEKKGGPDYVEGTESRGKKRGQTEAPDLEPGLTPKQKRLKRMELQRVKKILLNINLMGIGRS

Substance | binding [1] | binding [2]
PARP2:RFP (Arabidopsis thaliana Poly(ADP-Ribose) Polymerase 2, full length, fused to RFP) (from UniProt Q11207 1-637) | binds weakly | binds weakly
RFP:HaRxL106 (from UniProt M4C4U1 25-285) | – | binds

From publication PMC6230994
